Reference: PMC3539823 (Journal of medicinal chemistry, 2012)
In brackets after ≈: the same amount, converted by molar mass.

Key:
[1] = mouse liver microsomes, phase II, UDPGA 2 mM
[2] = test system: P493 human B cell xenograft; settings: mouse, in vivo, ip
physchem = settings: pH 7.4

Nc1nnc(CCSCCc2nnc(NC(=O)Cc3ccccc3)s2)s1 [Compound 6, N-(5-{2-[2-(5-Amino-[1,3,4]thiadiazol-2-yl)-ethylsulfanyl]-ethyl}-[1,3,4]thiadiazol-2-yl)-2-phenyl-acetamide]
loss of parent compound with UDGPA (glucuronidation) [1]: negligible loss of the parent compound | toxicity following repeated intraperitoneal injection [2]: no apparent toxicity | solubility (physchem): 13 µg/mL (≈ 32 µM)
